Measured values from publication PMC6385987.

T1: Flag-tagged SMN (Drosophila survival motor neuron protein) (Drosophila melanogaster) (UniProt Q9VV74)
T1 sequence: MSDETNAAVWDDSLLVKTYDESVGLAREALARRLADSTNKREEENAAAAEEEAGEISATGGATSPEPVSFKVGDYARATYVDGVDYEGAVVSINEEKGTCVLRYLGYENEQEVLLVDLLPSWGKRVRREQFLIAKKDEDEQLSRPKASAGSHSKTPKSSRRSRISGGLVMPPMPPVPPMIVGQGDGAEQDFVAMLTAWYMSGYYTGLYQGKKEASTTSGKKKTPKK

B1: Gemin3 (Drosophila) (protein, UniProt Q9V3C4 1-1028)
chain: MEREIAHSLAGGEERSSDVAPGQVKTFEELRLYRNLLNGLKRNNFVTPTKIQAAAIPMALAKMDLIIQSKSGTGKTLIYVIAVVQSFNPNINQPHAMIVVPTRELAIQVQDTFFHLCKSFRDFKCSAFIGGTDVAKDRKRMNESRVIIGTPGRLLHLYENRVFDVSKLRLLVLDEADQLYQTKSLQHTVSKLIEAMPKNRQIIACSATYDQNLDERLAKVMDKPMLISNSERATVLLGIRQFVYELPQQNNSVEEMRLKLQILGQIFNQLPYEQAIIFASSQMRADSYKNYLTASGIDCHLISGAMEQSERLHVFEGYRNFTMRILVATDLMARGVDSPHANLVINIDPPQDHVTYLHRIGRAGRFGSKGIAITFIASKKESQRFREMSKKIATAWSVLEFPKEPMPNEFNFWDFEKYNFDYYIKEENPLQEMPMPIKENRSKENVDASSVDLENLQKDQDGKRRDPDKLPVALENVETQKELELENLPESSHNNKNLRVKEKEIVRQGKLKETNSKAGGSKTNKTERRKKSNTPSKLQKQITEVQQTPEITVNKYYMQEDIQRTADGKEYHPVNGAGNHQVPSKSNQKPVEFISPELTPTLTPLELTQEPSPTTVTPPAPPANSINNKTYCLAAPTQTSSMTIQNMVISNTVDDASSISSDSMVVCGYHSDRSYDTYYATSDEEEIWNRLMSKQRRQLKSKRGHGKRRVILYKKVFPKLKANVKRKLKKRMSSSCRSKKAHHLRKRHVYKNISLLPHMNLCHLLQKFTNQERFLKRLHKYAKNQFIDNARVGFLLDKLYKSILEMYYNSAKERKKHFKEAMKESLKSIDNYESQESSESEEEEEEEKDLKNKLSVHVTNQMDIPPMPQAAVEIGSGSESDTEDSQEYGEGEEIIVDDEDDGSDGGPNSSSGFVESQESVSSGIDTSVYETESTGASGNNSSAFFISDDESDTESLTDSEAGSNVSATGSSSQRSSVASSTYESSDDDSVTVTNVSSMQNAQSLWLQTFNMQYQFIASHVAKNLQNYY
B2: Gemin5/Rig (Drosophila rigor mortis) (protein, UniProt Q86BY9 1-1235)
chain: MNSQVMYHNVPTPPGNVSLAAAAPDGGLLYAGIRCINYISAPPANGEQPQVVTMSTRINILALDVSPMWGLGNGGPTKPFAIVGDDLSVQVWDCALGEAVIGHKAHQHQHEARDVRVVHHTTNSVLMSYLANGNILSMDASDLVIYCVASNTYCRRSTFISPRNHQLTMVRCSPYNDNLFAVGTAMGNVLVCDLRKMNIVYKFHGHKAPICGLAWREVPAAEDEKTNNLALSAEEWRSRNGGQEEKPKTKPPPLTKSKAAESDDPFDIYNFDHLEYEFGAPIAERRRKSSEDCGGEFVGLEKPAGAAVLDFVEACESVKAELLASRQEDKTQHVEVTLHDCEPTKPTGPLSDASTISNKNDASDSTEGSLEVIQYSSSSDDAVIVDGEAAKPKREVLHHIYHQAEVHASGTPQTKSEPQSNLQVVPAISAETISLTSVNSTHLETLLVSIDGDEVMMIWNTNTGAHAGKNYSKSKTAGKLNNVYWLNNHVIVSLSRHQLFFWSVEFERKMLRYKISKDKSHSCHLQDIVSFACDSSKEMIWLCRNNRQIGMMNPKTGRMADFYGTVAFGVRAMAECPDDMNKIALGCSDRRVAFFDISKLTTSCLPIDSVYVSSNVYCLAWSPNCLELAFGTFDGTVGILDVERMKVKTHLRTPHKKEVYSLVWQDHFIYFIVNRVLGFFDLRKSKIEPTIVNCISRPSYLSIRDSFLFVGTDDGLLQIHERDSGMEKSWSPFIRQSALFARYVTDIAWCPLDSNKFAVSGNDRSVYVMEFQPTERNWKTLHTFTANTEKASITSMRWSHTQKHLLLTFHIEGKVCLWNCNAPEKPPLTITYHCPMWCGMFLPTNENIIMCSGKALSVELIDIKDALEGDEKSICPKVDALLNVKWASKSLTQPYAPVLTAAEKKRQRRDQRKAAAKLEVDVANKDQKKIQESVTAVIDNPTNDKCTQETPVEEMLEALSLDKEQNNRSAKECPKCKEQSPDSFTHSRTCLYLTQKELNKSALEKLAIVLTEDSAKIDKSVLISKLFSSKVMAKELIATELTNLKHSNTKDIAPLCLAMSTFKLREELEQHIANKTLTERHVSLAPSVSFTLWQDCCRAYAKQMEEKGYIMHAATYLFSQGMQSEAIKLFLANEYYKEALVHARICLPATDPLIKTVINNWLEHLEGTGNFAAAALICVLDNEMLRGYSYLRKYRNCTPEIADLMDQIKRIGQLGGVLDGCAPNEPIHNGSTAEH
B3: CG2941/Gaulos (Drosophila Gemin4a), endogenous (protein, UniProt Q9W4N9 1-911)
chain: MITAKKHPLDNCQLFVQLKKLFHDYNEKVQRLKDMIYWSGNDEHIAKICDQVTDLLVEHDLIIQPPDTMDPCAMNHLRGLLVYLVLNTAHDDIQCESQWSANVMHLCNQLPPIPLFLTIAIAVNCCLMEPLEEFLACGPRWLTIQYFEAFNEALSVINSDCVETLPLLSAALRAAGRAIVNCNLPAENKQLLRQIACMEHRHILDSKQRLHTLPRPSTRKIYLAKAMDHLIEVLLYTLNDPLKREKPNCFAVYSQITEDISDSNSSDPMPDLRHFAQILLDVLQRIFQLVSVDTYMYWHEMKSKSALYNCQELICRQTAELLKVLQSDKLLGEHPVCKQMQSFADAAKTLEQRVAEMRIGELLAFIDSGMATNEELLAGLDNLFSRFIAFGSDECLETMANHLIMLTKKHAQIILSFLGQVVESEMVVEDEGISVTEVNQGDDEDETSSNDDYEELLSLVLRPLFMQLNVEDKMEVLLLRDEQNVTQGFNFKAPDHRERRIRFFNQLDYNKRFPITEFLVLCFENARQTWIDFSHLGVTHTRFSKLFWHIAQSCPKHAAFHISACADNILVNEQLLQKPYALQFTLYLYGHRQILNGLYTSARQLCVSLKDGRCPYGEDELRQAQNRFLDACAYGLAKFIEPMNLPSLQLILKLLKQISLGESNLITRGTAELNALEKEHPKLENGDDAPAVKVAKHYTYLHASLPEWRLKHWKLISHVMKTIDALRWDLATFEDFRVDNLELAVWYWQDGLSHLTFLGTEFRQRILNQVSKLKHKDFWIIYLKEDTLKDTRSFLKLLTQSSAQEANDLFNKLLKKRADCAVMGDLSDAVVKVNSESAFMAFRFLFREYLIAFRSHAKHNKTITKRQHWDHLMAVVAKAPFSIRNEIMELASKAFAVRFGINIQEQQAAKC
B4: CG32786 (Drosophila Gemin4b), endogenous (protein, UniProt Q8IRT0 1-911)
chain: MITAEKHPLDNCQLFVQLKKIFHDNNEQAKCLKDMIYWSGNDEHIEKICDQVTDLLEEHDLIIQPPDTMDPFAMNQLRGLLVYLVLNTAHDYFLCKSQWSANVMHLCNQLPPIPLFLTIAIAVNCCLMEPLEEFLACGPRWLTIQYFEAFNEALSVINSDCVETLPLLSAALRAAGRAIVNCNLPAENKQLLRQIACMEHRHILDSKQRLHTLPRPSTRKIYLAKAMDHLIEVLLYTLNDPLKREKPNCFAVYSQITEDISDSNSSDPMPDLRHFAQILLDVLQRIFQLVSVDTYMYWHEMKSKSALYNCQELICRQTAELLKVLQSDKLLGEHPVCKQMQSFADAAKTLEQRVAEMRMGELLVFLDSGMATDEELLAGLDNLFSRFIAFGNDECVETMANHLIMLTKKHAQIILSFLGQVVESEMVVEDEGISVTEVNQGDDEDETSSNDDYEELLSLVLRPLFMQLNVEDKMEVLLLRDEQNVTQGFNFKAPDHRERRIRFFNQLDYNKRFPITKFLVLCFENARQTWIDFSHLGVTHTRFSKLFWHIAQSCPKHAAFHISACADNILVNEQLLQKPYALQFTLYLYGHRQILNGLYTSARQLCVSLKDGRCPYGEDELRQAQNRFLDACAYGLAKFIEPMNLPSLQLILKLLKQISLGESNLITRGTAELNALEKEHPKLENGDDAPAVKVAKHYTYLNASLPEWRLKHWKLISHVMKTIDALRWDLATFEDFRVDNLELAVWYWQDGLSHLTFLGTECRQRILNQVNSLKHKGFWLIYLKEDTLKDTRSFLKLLTQSSAQEANDLFNKLLKKRADCAVMGDLSDAVVKVNSESAFMAFRFLFREYLIAFRSHAKHNKTITKRQHWDHLMAVVAKAPFSIRNEIMKLASKAFAVRFGINIQEQQAAKC
B5: CG32783 (Drosophila Gemin4c), endogenous (protein, UniProt Q8IRS9 1-911)
chain: B4 chain with Q284R, K329N, L330M, N811K
B6: CG14164 (Hezron/Lsm12b) (protein, UniProt Q9VT67 1-186)
chain: MSSLAPCFTVGSIVRCKTCFGDNISGEVVAFDLGVKMLIMKCPSSNGGGDEQTTCNVTIVNLSLCMDIEIVKEAIPPAEVQQPEPIDLPMIRERYRYATEHRTLSCRSYHPNASPFGQALFRLLVKRFGDPAIIWQNKGDQVAINILRQVVIDAPYATENIRYLDWNPKLAICVQEVVQNFCSKQF
B7: CG31950 (Sabbat/Naa38) (protein, UniProt Q8IPZ7 1-121)
chain: MTELSITGQQVMPPPACTPPEPFRITTNAPHQMNDASLTPGRRKLQKWLGRVLRIVITDGRVLVGFFNCTDRDANIVLSMCAEYLVEGQEPRLLGNVMVPGQHIVSLSIDEPDPQSSLLVQ
B8: CG2371 (Valette/CommD10) (protein, UniProt Q9VYV9 1-238)
chain: MSINWIKITERAREGIKIINALPYETFTTVLFYTHRQMSPSVASASATSSTVGTSVTTTGRVDSSTEENPTSNTEPEYTLEELERLVGVPRQDFLLLIKTFSYILRRISTFIIKPSLLQRELREKLQLEDEAKIDAILRLWVRETTPIMNNLASKRYESNVIEDVAWKLNMEISSHCQQREKTPLAVLQMKTAVGEDINIEMTQPELMELYNQFESIQGELDAMLAMKTTGATAPGNQ

Target: T1, Flag-tagged SMN (Drosophila survival motor neuron protein) (Drosophila melanogaster)
Experiment: affinity purification with mass spectrometry; 0-12h embryo lysates of Flag-SMN flies and Oregon-R control on anti-FLAG M2 affinity gel, 2h at 4C; six washes with 100-250 mM KCl; eluted with 3XFLAG peptide; label-free mass spectrometry (Orbitrap Velos)

Molecule	binding
Gemin2 (Drosophila)	binds
B1	binds
B2	binds
B3	binds
B4	binds
B5	binds
B6	no binding
B7	no binding
B8	no binding

Changes are numbered by the printed parent chain. Results are given in words; binding and its absence hold for the method and conditions named. In cells and extracts the contact can be indirect. These calls come from enrichment with a bait or labelling near it, and not all partners need be listed. A no says only that the protein was not detected with the bait. Sequences can lack the tags named with a protein.
